In patent US20250249038A1 one finds binding data, which are given here for two molecules.

By UniProt entry, the sequences of proteins in these tests, tags left out. Residues count along the entry.
UniProt P40259, residues 29-159: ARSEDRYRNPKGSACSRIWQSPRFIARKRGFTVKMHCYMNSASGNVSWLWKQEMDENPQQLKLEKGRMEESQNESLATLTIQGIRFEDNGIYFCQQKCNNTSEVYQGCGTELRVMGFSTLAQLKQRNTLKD

No constants are given. Whether binding was seen depends on the method and setting. Some entries that bind do so weakly or less than the wild type.

Assay [1] deals with T1, fluorochrome conjugated recombinant CD70 protein (UniProt P32970).
T1 sequence (fluorochrome conjugated (fluorochrome and site not stated), looked up): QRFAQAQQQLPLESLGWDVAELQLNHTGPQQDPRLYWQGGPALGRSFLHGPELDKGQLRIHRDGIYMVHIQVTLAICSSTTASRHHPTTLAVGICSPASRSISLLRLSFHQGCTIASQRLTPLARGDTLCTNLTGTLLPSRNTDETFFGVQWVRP
Briefly: flow cytometry, fluorochrome conjugated recombinant CD70 protein staining of CAR-transduced primary human T cells.

Assay [2] concerns the target APC conjugated CD79B antigen (UniProt P40259). The experiment in a line: flow cytometry, APC conjugated CD79B antigen staining of transfected 293T cells.

B1: CD70 CAR (tCD27-CD30 HTM-CD28 cos-CD3Zeta) (protein)
chain: ATPAPKSCPERHYWAQGKLCCQMCEPGTFLVKDCDQHRKAAQCDPCIPGVSFSPDHHTRPHCESCRHCNSGLLVRNCTITANAECACRNGWQCRDKECTECDPLPAPASTSPTQSLLVDSQASKTLPIPTSAPVALSSTGKPVLDAGPVLFWVILVLVVVVGSSAFLLYCWVRSKRSRLLHSDYMNMTPRRPGPTRKHYQPYAPPRDFAAYRSRVKFSRSADAPAYQQGQNQLYNELNLGRREEYDVLDKRRGRDPEMGGKPRRKNPQEGLYNELQKDKMAEAYSEIGMKGERRRGKGHDGLYQGLSTATKDTYDALHMQALPPR
In the case of B1, the binding result in assay [1] was “binds”.

B2: CD79B CAR (SN8 scFv-CD30 HTM-CD28 cos-CD3Zeta) (protein)
chain: DIVLTQSPASLAVSLGQRATISCKASQSVDYDGDSFLNWYQQKPGQPPKLFIYAASNLESGIPARFSGSGSGTDFTLNIHPVEEEDAATYYCQQSNEDPLTFGAGTELELKRSGGGGSGGGGSGGGGSGGGGSEVQLQQSGAELMKPGASVKISCKATGYTFSSYWIEWVKQRPGHGLEWIGEILPGGGDTNYNEIFKGKATFTADTSSNTAYMQLSSLTSEDSAVYYCTRRVPVYFDYWGQGTSVTVSSAPASTSPTQSLLVDSQASKTLPIPTSAPVALSSTGKPVLDAGPVLFWVILVLVVVVGSSAFLLYCWVRSKRSRLLHSDYMNMTPRRPGPTRKHYQPYAPPRDFAAYRSRVKFSRSADAPAYQQGQNQLYNELNLGRREEYDVLDKRRGRDPEMGGKPRRKNPQEGLYNELQKDKMAEAYSEIGMKGERRRGKGHDGLYQGLSTATKDTYDALHMQALPPR
For the molecule B2, the binding result in assay [2] is listed as “binds”.
